From US12343400B2, “Brain tumor-targeting peptide and application thereof” (priority 2018, dated 2025)
At least one peptide structure holds a part that was inferred or is arguable (an end, a ring closure or a residue). Where a SMILES comes first, the peptide text is derived from it. The star is where a group is joined. Paclitaxel(2'-O-succinyl) = CC(=O)O[C@H]1C(=O)[C@@]2(C)[C@H]([C@H](OC(=O)c3ccccc3)[C@]3(O)C[C@H](OC(=O)[C@H](OC(=O)CCC(=O)*)[C@@H](NC(=O)c4ccccc4)c4ccccc4)C(C)=C1C3(C)C)[C@]1(OC(C)=O)CO[C@@H]1C[C@@H]2O

Assays:
[1] = tested on: U87MG brain glioma; test: In vivo inhibition of tumor proliferation of U87MG brain glioma in a mouse model; set-up: species or system nude mice; conditions: tail vein administration three days after inoculation, luciferase chemiluminescence (FIG. 12)
[2] = tested on: U87MG brain glioma; test: Survival time of brain glioma model mice; type: in vivo, nude mice; conditions: tail vein, equal dose, three days after inoculation (FIG. 13)
Method: On the first day, 10^6 U87MG cells were inoculated at the right caudate nucleus of nude mice of 6-8 weeks old. Three days later, a solvent or equal dose of paclitaxel or PBL001 was administered via the tail vein, and the survival time of each group of mice was recorded, as shown in FIG. 13.

[3] = tested on: U87MG cells; test: In vitro inhibition of the proliferation of U87MG brain glioma; type: cell-based; conditions: cell viability two days after treatment (FIG. 11)

## CC[C@H](C)[C@H](NC(=O)CNC(=O)[C@H](CCCNC(=N)N)NC(=O)[C@H](CC(C)C)NC(=O)[C@H](Cc1ccccc1)NC(=O)[C@H](CC(N)=O)NC(=O)[C@H](CC(N)=O)NC(=O)[C@H](CCCNC(=N)N)NC(=O)[C@H](CCCCNC(=O)CCC(=O)O[C@@H](C(=O)O[C@H]1C[C@@]2(O)[C@@H](OC(=O)c3ccccc3)[C@@H]3[C@]4(OC(C)=O)CO[C@@H]4C[C@H](O)[C@@]3(C)C(=O)[C@H](OC(C)=O)C(=C1C)C2(C)C)[C@@H](NC(=O)c1ccccc1)c1ccccc1)NC(=O)[C@@H]1CCCN1C(=O)[C@H](CCCNC(=N)N)NC(=O)CNC(=O)CNC(=O)[C@H](Cc1ccc(O)cc1)NC(=O)[C@H](Cc1ccccc1)NC(=O)[C@@H](NC(=O)CCC(=O)O[C@@H](C(=O)O[C@H]1C[C@@]2(O)[C@@H](OC(=O)c3ccccc3)[C@@H]3[C@]4(OC(C)=O)CO[C@@H]4C[C@H](O)[C@@]3(C)C(=O)[C@H](OC(C)=O)C(=C1C)C2(C)C)[C@@H](NC(=O)c1ccccc1)c1ccccc1)[C@@H](C)O)C(=O)N[C@@H](CCCNC(=N)N)C(=O)N[C@@H](CO)C(=O)N[C@@H](CCCNC(=N)N)C(=O)NCC(=O)N[C@@H](CC(=O)O)C(=O)O [PBL001] ({Paclitaxel(2'-O-succinyl)}-TFYGGRPK(Paclitaxel(2'-O-succinyl))RNNFLRGIRSRGD-OH)
[1]
  inhibition of the proliferation of brain glioma: significant inhibitory effect
[2]
  survival time compared with solvent group or paclitaxel group: significantly prolong the survival time
[3]
  anti-brain glioma activity compared with paclitaxel: increased slightly
